PubChem BioAssay AID1347423 (Functional Genomics Laboratory (NCATS/FGL), 2020)
Hit rate of the full screen: of about 52,000 sequences, about 210 (0.4%) were called active.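 The calls were made as follows: active = gene whose silencing raises cell survival under the drug, median off-target-corrected z-score across its silencing RNAs 2 or more; inactive = the rest.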 This is one part of the list.

Assay: Resistance to Poly (ADP-Ribose) Polymerase inhibitor: Gene Identification via Genome-wide siRNA Screen
Conditions: mouse BRCA2 R2336H ES cells, olaparib, CellTiter-Glo viability; hits give high values
How it was run: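 Mouse BRCA2 R2336H ES cells were reverse-transfected with siRNA (20 nM final), treated at 48 h with 500 nM olaparib, and read by CellTiter-Glo after 72 h. Scores: MAD-based z per siRNA, median per gene, seed off-target correction.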

Sequence	z-score
GGUAUGAGUGAAGAAAAGATT against Ifi205	inactive: -0.37
GCUCAAAAUAACAAGAAGGTT against Ercc5	inactive: 1.51
GCUGAAAGCAUCCAAUGGGTT against Epb4.1	inactive: 0.343
GCAAGGGCUUUAACUAAGUTT against Wnt2	inactive: -0.000384
GCUUGUACCUGUGGAUCGATT against Wif1	inactive: 0.365
GGCUCUUAAUUGACUUUGATT against Pctk1	inactive: -0.614
GCUCAUACUCCGAAACCUGTT against Etv1	inactive: 2.05
CCUAUAAAGACUUAACGAATT against 9030224M15Rik	inactive: 0.794
CCAUACCAUUAGUGUCGGCTT against Thea	inactive: -0.803
GCUUUAAGGCUUACACAGATT against Klrk1	inactive: 0.416
GACCUUCGACACCGACAAATT against 2900027G03Rik	inactive: 0.645
CCCACUUGUCUACAGCCUATT against Olfr1505	inactive: -1.96
GGAGGAAGAAGAUGAGAUATT against Il4ra	inactive: 1.7
GGACAUCUCCUCAAUCAUCTT against Gdf10	inactive: 0.845
GGAUGAAACUCCUACCACATT against Zfp179	inactive: -2.95
GGAAAACCCUGGUACUGAUTT against Mpp2	inactive: -0.543
GGUUGUCUGCUAAACCUGCTT against Hmgn2	inactive: 0.475
GGAUGAUAUCUCAGUCAUGTT against 2810007J24Rik	inactive: 0.988
CGAAGAUGCCAGUUAUGUUTT against MGC58365	inactive: -1.35
GGAAUUUGGAAUGGCUACUTT against BC034076	inactive: -1.96
CGUGCGAGACAGCUUUUAATT against Gtf2h3	inactive: -1.17
GGAGACUUAAGAUGUUACATT against AW049604	inactive: -0.452
GGUGGGAAAUUCGUAGACUTT against Pdcd1	inactive: -0.658

Sequence	z-score
GCGUAAGGAAUUGUCUAACTT against Hoxd12	inactive: 0.5
GGAGGUAAAAAGCAAGACATT against 4930548H24Rik	inactive: 0.722
CCAGAUAACAUUAGAACUATT against Nsep1	inactive: -0.478
CCAACCAGACUUAUUUAAUTT against Zfp37	inactive: 1.63
CCUAGUUUUGAACAUCAGATT against Il13ra1	inactive: 0.675
CCUCAAAGUGGAUCAACUGTT against D17H6S53E	inactive: 1.36
CCUCUCCCAUGUAGCUUACTT against 1700123D08Rik	inactive: 0.888
GGCAGUCAUUACCUAUCAGTT against Atp7b	inactive: 0.423
CGAAAAUACGUCAAAGCUCTT against Abca8b	inactive: -0.275
GUCAUUGCACCAAAAAUGUTT against Olfr1052	inactive: -0.308
GCCAAAUCUACUGUUAUUUTT against 2310044D20Rik	inactive: 0.408
GCCAGUUUGCUGAUGGUUGTT against Tmem14c	inactive: 0.0872
GGAGAUUUACUGCUCGCUGTT against BB220380	inactive: -0.0155
GGAAGUGCUGUUCUUGGGCTT against Smug1	inactive: 1.86
GGUUUUCACGUGCUGCUGATT against Chd1l	inactive: -2.51
GGUAUUCAGUAAUACAGUUTT against Igf2bp3	inactive: -1.01
GCUGGUCAUUACUAAUACATT against Rsbn	inactive: -1.02
GGCUCUGGUCCAAGAAAUGTT against C4	inactive: -1.41
GGAGUUGAGGGUCUCAUUCTT against Nphp1	inactive: 2.19
GGAAUGAACAUCAUUGUUUTT against Sms	inactive: 1.16
GGCAGGACGAACAUGGCUATT against Hspb1	inactive: -0.172
GCACAAACUACUGAACUUGTT against Tcfap2e	inactive: 1.69
GGAGUACAUGGUGAUGUUGTT against Tessp3	inactive: -0.703

Sequence	z-score
GGGCUCACUCUGUCUCUACTT against 2810432D09Rik	inactive: 1.34
GGAAGAAAAACUUGUCUCCTT against Copa	inactive: -2.72
CGGAGCUGUUGGUAAAACCTT against Rac1	inactive: -0.207
CCACGUUGUCAUAAUAAACTT against Mrpl13	inactive: 1.23
GGCAAUGCUAGGUGAGGAATT against Olfr157	inactive: -1.5
GGUCUCUGUUGCUUUGACUTT against Tgoln1	inactive: 0.0732
CCGUGUCUUCCAUAUUGGUTT against Trip6	inactive: -0.166
GGCUCCUUUCGAAAGUAAATT against BC051142	inactive: 0.471
CCUUUGAGCCAGUUAUUUATT against Slc25a27	inactive: 1.7
GCCACAAACCAAUGGUUUGTT against B230219D22Rik	inactive: 1.27
CCUUUAGGUACCACGAGUGTT against Gyltl1b	inactive: -0.781
GCUCCGAAGAGCUAAUACUTT against Tmem25	inactive: 0.0528
GGUAUACAUGCUUCUCUCUTT against Olfr610	inactive: -0.59
GCAAUAUACACCAUAUUGGTT against Panx3	inactive: 0.604
CGAAACUAGGAUUGAGGAGTT against Ece1	inactive: 2.34
GGAAAAAAAGGUGAAAACCTT against Ttc16	inactive: -0.609
CGAUUCUGCUACCUAUAGATT against 2810408A11Rik	inactive: 1.09
GGUGUUUUUUAUCAGUAUGTT against Tsrc1	inactive: -0.236
GGUGUUUUUGAUGAGAGUGTT against 1110055N21Rik	inactive: 0.656
CCUUCAUUGUGAUUGACAUTT against Ptpn11	inactive: 0.909
GGACAGAUCUUUUUGGUUUTT against Olfr295	inactive: -0.163

A different layout for some results above.
Sequence,z-score
CGGAGCUGUUGGUAAAACCTT against Rac1,inactive: -0.207
CCACGUUGUCAUAAUAAACTT against Mrpl13,inactive: 1.23
GGUCUCUGUUGCUUUGACUTT against Tgoln1,inactive: 0.0732
GGCUCCUUUCGAAAGUAAATT against BC051142,inactive: 0.471
